Data from patent US9175313B2, “Three-dimensional structure of isoprene synthase and its use thereof for generating variants” (Danisco US Inc., priority 2009, dated 2015).

B1: wild type IspS: P. alba MEA (+) TEV isoprene synthase, MD09-163, strain MD09-167, SEQ ID NO: 63 (protein)
chain: MEARRSANYEPNSWDYDYLLSSDTDESIEVYKDKAKKLEAEVRREINNEKAEFLTLLELIDNVQRLGLGYRFESDIRGALDRFVSSGGFDAVTKTSLHGTALSFRLLRQHGFEVSQEAFSGFKDQNGNFLENLKEDIKAILSLYEASFLALEGENILDEAKVFAISHLKELSEEKIGKELAEQVNHALELPLHRRTQRLEAVWSIEAYRKKEDANQVLLELAILDYNMIQSVYQRDLRETSRWWRRVGLATKLHFARDRLIESFYWAVGVAFEPQYSDCRNSVAKMFSFVTIIDDIYDVYGTLDELELFTDAVERWDVNAINDLPDYMKLCFLALYNTINEIAYDNLKDKGENILPYLTKAWADLCNAFLQEAKWLYNKSTPTFDDYFGNAWKSSSGPLQLVFAYFAVVQNIKKEEIENLQKYHDTISRPSHIFRLCNDLASASAEIARGETANSVSCYMRTKGISEELATESVMNLIDETWKKMNKEKLGGSLFAKPFVETAINLARQSHCTYHNGDAHTSPDELTRKRVLSVITEPILPFERENLYFQGLEHHHHHH
modifications: TEV site
B2: L494P: P. alba IspS variant L494P; pDW101, strain DW399, SEQ ID NO: 69 (protein)
chain: MEARRSANYEPNSWDYDYLLSSDTDESIEVYKDKAKKLEAEVRREINNEKAEFLTLLELIDNVQRLGLGYRFESDIRGALDRFVSSGGFDAVTKTSLHGTALSFRLLRQHGFEVSQEAFSGFKDQNGNFLENLKEDIKAILSLYEASFLALEGENILDEAKVFAISHLKELSEEKIGKELAEQVNHALELPLHRRTQRLEAVWSIEAYRKKEDANQVLLELAILDYNMIQSVYQRDLRETSRWWRRVGLATKLHFARDRLIESFYWAVGVAFEPQYSDCRNSVAKMFSFVTIIDDIYDVYGTLDELELFTDAVERWDVNAINDLPDYMKLCFLALYNTINEIAYDNLKDKGENILPYLTKAWADLCNAFLQEAKWLYNKSTPTFDDYFGNAWKSSSGPLQLVFAYFAVVQNIKKEEIENLQKYHDTISRPSHIFRLCNDLASASAEIARGETANSVSCYMRTKGISEELATESVMNLIDETWKKMNKEKLGGSPFAKPFVETAINLARQSHCTYHNGDAHTSPDELTRKRVLSVITEPILPFERENLYFQGLEHHHHHH
B3: T536F: P. alba IspS variant T536F; pDW87, strain DW363, SEQ ID NO: 95 (protein)
chain: MEARRSANYEPNSWDYDYLLSSDTDESIEVYKDKAKKLEAEVRREINNEKAEFLTLLELIDNVQRLGLGYRFESDIRGALDRFVSSGGFDAVTKTSLHGTALSFRLLRQHGFEVSQEAFSGFKDQNGNFLENLKEDIKAILSLYEASFLALEGENILDEAKVFAISHLKELSEEKIGKELAEQVNHALELPLHRRTQRLEAVWSIEAYRKKEDANQVLLELAILDYNMIQSVYQRDLRETSRWWRRVGLATKLHFARDRLIESFYWAVGVAFEPQYSDCRNSVAKMFSFVTIIDDIYDVYGTLDELELFTDAVERWDVNAINDLPDYMKLCFLALYNTINEIAYDNLKDKGENILPYLTKAWADLCNAFLQEAKWLYNKSTPTFDDYFGNAWKSSSGPLQLVFAYFAVVQNIKKEEIENLQKYHDTISRPSHIFRLCNDLASASAEIARGETANSVSCYMRTKGISEELATESVMNLIDETWKKMNKEKLGGSLFAKPFVETAINLARQSHCTYHNGDAHTSPDELTRKRVLSVIFEPILPFERENLYFQGLEHHHHHH

Test: Small scale expression and yield of purified 6xHis-tagged IspS variants
Settings: yield of purified protein compared to wild type IspS
Protocol: N-terminally 6×His-tagged wild type IspS, IspS-L494P, and IspS-T536F were expressed and purified from strains MD09-167, DW399, and DW363, respectively. The growth procedure is suitable for histidine tagged enzymes expressed in BL21(λDE3)pLysS cells. A 3 ml of overnight culture was prepared for each 100 mL of planned growth. The appropriate antibiotics ([…] kanamycin, […] chloramphenicol) were added to 3 ml of LB medium in a 10 ml glass tube and was inoculated with 1 colony from a fresh plate of cells or directly from glycerol frozen cell stock. Cultures were grown at 30° C. overnight with shaking at ˜220 rpm. Day cultures were prepared in 100 mL of LB medium with appropriate antibiotics for each culture. Each 100 mL day culture was inoculated with 50 μl of overnight culture and grown at 37° C. with shaking at ˜220 rpm until the OD600 reached ˜0.4-0.6. Day cultures were then induced with 400 μM IPTG and allowed to continue growing at 30° C. with shaking at 220 rpm for ˜5-6 hours. Cells were then harvested by centrifugation at 10,000×g for 10 min, 4° C. Following Harvest, cells were used directly or stored at −80° C. until ready to process.
For purification of histidine tagged enzymes from BL21(λDE3)pLysS cells, cells were gently resuspended in fresh Lysis buffer (Lysis buffer: Ni wash buffer+0.5 mM PMST, 0.01% Tween-20, 1 mg/ml lysozyme, 0.2 mg/ml DNaseI; Ni wash buffer: 50 mM NaH2PO4, 300 mM NaCl, 20 mM Imidazole, pH 8.0). Approximately 3 ml of lysis buffer was used per 5 mL of cell pellet. Cells were then incubated on ice for approximately 30 min. The cell suspension was then lysed fully by passing 2-3 times through a french pressure cell (small french press cell at 850 psi/Low setting) until lysate started to look clear. […]
To buffer exchange the protein into a buffer suitable for protein assays and storage, a PD-10 column (GE Healthcare) was equilibrated with 25 mL PD-10 buffer (50 mM HEPES, 0.05 M NaCl, pH 7.4). […] The eluate was then analyzed by absorbance at 280 nm and SDS-PAGE gel and the samples were stored at −80° C.

**Q.** For B1, which “Relative Yield” value is on record?
**A.** 1

**Q.** Which “Relative Yield” value does the source give for B2 here?
**A.** 1.3

**Q.** With B3 as the molecule, how does the “Relative Yield” value read?
**A.** 1.9
